Z-score data for 104 sequences are collected here from PubChem BioAssay AID1347423 (Functional Genomics Laboratory (NCATS/FGL), 2020).

Among all 52,000 sequences or so, about 210 (0.4%) were called active.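 How the source made its calls: active means gene whose silencing raises cell survival under the drug, median off-target-corrected z-score across its silencing RNAs 2 or more; inactive means the rest.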 This is one part of the list.

This experiment is described as follows: Resistance to Poly (ADP-Ribose) Polymerase inhibitor: Gene Identification via Genome-wide siRNA Screen. As to conditions: mouse BRCA2 R2336H ES cells, olaparib, CellTiter-Glo viability; active compounds read high. Summed up:
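Mouse BRCA2 R2336H ES cells were reverse-transfected with siRNA (20 nM final), treated at 48 h with 500 nM olaparib, and read by CellTiter-Glo after 72 h. Scores: MAD-based z per siRNA, median per gene, seed off-target correction.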
Turning to GGAAAAGGAUAAGGAAAGCTT against Atbf1, the z-score was inactive: 0.684.

GGACGAUGAACAUUGUCCCTT against Gpr19: the z-score was inactive: 1.36.

On to GGAGUCCUCAAUACUUUCUTT against C79267, for which the z-score is inactive: -0.827.

As for GGGUCUGUAUCAGCUUGGUTT against Olfr1402, the z-score is inactive: -0.979.

Take GGUAAAGCAGUACCUUUCUTT against Mitf: the z-score was inactive: 0.781.

For the sequence “GCAGGUCUAAAACUCUCAUTT against 9330180L21Rik”, the z-score is inactive: 0.668.

Take CCAGGUGUACCUUACGUUGTT against Eif4ebp2: the z-score is inactive: 0.839.

Turning to GGGCUUUCUCAGAAAAGAATT against Olfr508, the z-score was inactive: -0.134.

For the sequence GCCAUUUCAUUUCGGACUGTT against Dgkz, the z-score was inactive: -1.22.

For the sequence GCUGGUGUGUAAUUACGUUTT against Gli, the z-score was inactive: 0.981.

GAAGAUUGGAUUUAAAGCCTT against Olfr667: the z-score was inactive: 0.883.

GGUGUGCAGAAGAUCUUGCTT against Osbpl6: the z-score is inactive: -0.618.

As for GGUUGUUAUAGAAGCUAAUTT against Wnt5a, the z-score was inactive: 2.31.

As for GGAGGCAGCAGUUAUUGUGTT against Ly6a, the z-score was inactive: 0.455.

Consider “GCAGGAAUAUACGAAUCACTT against 4930478A21Rik”, for which the z-score was inactive: 1.39.

In the case of GCUAACCUUUGAGUUAGUGTT against Tbc1d12, the z-score was inactive: -0.334.

Take GGAACCUGAAAAUGUAUGUTT against Cxcl10: the z-score was inactive: 1.57.

In the case of GGAACAUUUUUAGGACUGUTT against AJ543404, the z-score is inactive: -0.715.

With GAGAAGAGAGAGAAGCAUUTT against Sstk, the z-score is inactive: -0.746.

On to GGCACUCAGAAAUAUUCAGTT against Nap1l3, for which the z-score is inactive: 0.82.

For CGUAAAGUGAUUAUAACACTT against AW210570, the z-score was inactive: 0.403.

GGAUCCUAGGAUUCUUGGUTT against Slfn5: the z-score is inactive: -2.49.

For GCGUACGUUCUCCUAACAUTT against Hbs1l, the z-score was inactive: 0.603.

As for “GGCCUUGAUGGUGAAGAUGTT against E130203B14Rik”, the z-score is inactive: 0.398.

As for GCAAUACUAUUCAGUCCAUTT against Gnai3, the z-score was inactive: -0.509.

For the sequence GCAUCUUACGCAUUAAAUCTT against Olfr935, the z-score was inactive: 0.555.

Regarding “GCAGAGUUUGCAUGCUGUUTT against 1110051B16Rik”, the z-score is inactive: 0.414.

For the sequence CGUUUUAUGUGGCAAGCAUTT against Olfr1306, the z-score is inactive: 0.278.

GGCAUCUCUUUGCUUGAAUTT against Lalba: the z-score is inactive: -1.34.

In the case of GGAGUGUACAUUCUGAUUGTT against Cd9, the z-score was inactive: -0.946.

As to “GGUUUAAGAAAAAAGGAGCTT against 1810048P08Rik”, the z-score is inactive: 0.304.

Take “GGGCAUUGGCAAGAAAAAGTT against D030015G18Rik”: the z-score is inactive: -0.551.

As to GGCAGUGACUCUUCAGAAGTT against Ibsp, the z-score was inactive: -1.07.

Turning to “GGAAACCUGGAAACAGUUUTT against 2210421G13Rik”, the z-score was inactive: -0.602.

GGAGGUGAACCAUAGAGAGTT against BC035295: the z-score is inactive: -0.806.

Take CGAGAGAAGCCCAUCAUCATT against Nrg4: the z-score is inactive: -0.2.

As for GGCAUUAGCAUCUACCCAGTT against Syt11, the z-score is inactive: 0.242.

In the case of GGAUUGCUCCGAGAACAUCTT against Grcc9, the z-score was inactive: 0.084.

On to “CCUACACUAAAAUUCACCATT against D730046L02Rik”, for which the z-score is inactive: 0.0902.

For the sequence GGCAGGUGUUAAGGCUUCATT against Tas2r117, the z-score is inactive: -1.32.

Take CCACAAUGUUACCCAGAAUTT against Gpr64: the z-score was inactive: -0.504.

As to GGUAUUCCUGUCUCAGGUCTT against Matn1, the z-score is inactive: 0.49.

In the case of GGCUUCAUUUACUGUAACGTT against Flrt3, the z-score was inactive: -0.683.

Regarding “CCCUAACAUACUGGAGCUATT against 4832406C22”, the z-score is inactive: -1.69.

With “GGAGAUCUUGAUUAGCGAATT against 4930401F20Rik”, the z-score is inactive: -0.281.

On to GCACCUAGCAUAGCAAUGGTT against Slc24a1, for which the z-score was inactive: -1.34.

As to GGAAGAAGUACUGAGAAGATT against Ctsq, the z-score is inactive: 0.62.

GGCCACACUUUGAAGUGACTT against Set7: the z-score is inactive: -0.153.

As to GGGACAUUAAUAAACCUGATT against Omg, the z-score is inactive: -1.21.

Consider GCCCACUAUUAUCGAUAUGTT against Nspc1, for which the z-score is inactive: -0.0988.

As for GGGUAGAAUGACUUUGGCCTT against Cldn2, the z-score is inactive: 0.488.

GGAUGUCCUUGUUUCCUUCTT against Sult5a1: the z-score was inactive: 0.582.

“GGAAAAGAUCAACCAUUAUTT against 1700007N18Rik”: the z-score was inactive: -1.57.

As for GAUUGCUACUCUGGCUUUATT against Tm4sf10, the z-score is inactive: -2.46.

As to GGAAAUAGAUUCAUUGAAGTT against Slc6a14, the z-score is inactive: 0.884.

Regarding CCUGUUUCAGUCAUUAGUGTT against Slc22a2, the z-score is inactive: -0.256.

For the sequence GCUGAGAAAUUGUCUACGCTT against Ngfrap1, the z-score was inactive: 0.985.

With GGAUGUACAGUGCAUUUUGTT against D10Bur2e, the z-score is inactive: 0.407.

For GGCAAGAUCCACAUCAACUTT against LOC434008, the z-score is inactive: 2.2.

For the sequence UUUGCUGUCCUUUCUUUCATT against Olfr122, the z-score was inactive: -0.703.

For the sequence GGAGCAGUGCAUUGAGACCTT against Adcy6, the z-score was inactive: 1.28.

Turning to GGCUGAGAAGCAAAAACUCTT against Olfr1496, the z-score is inactive: 0.628.

With GGAGAUUAACCGGAGAAUGTT against Ptpra, the z-score is inactive: 1.2.

For GGAGAAGCUGAAAUUGAAATT against Cfi, the z-score was inactive: -0.0106.

For “GGAUACCUAUAGAAAAUGUTT against 5730592L21Rik”, the z-score was inactive: 1.08.

For GGGUUGAUUUGGUGUUUUATT against Usp46, the z-score is inactive: 0.344.

As to CCAUGCCAAGUCUCUACACTT against BC014685, the z-score is inactive: -0.807.

As to GCAAAAAUGGUUCUCCAUATT against Plxnc1, the z-score is inactive: -0.777.

In the case of “GGGUCGGCUUAUAAUUACUTT against 4930523C11Rik”, the z-score was inactive: -1.01.

As for “GGUAUUGUCUCUAGGAGACTT against 4932414J04”, the z-score was inactive: 0.161.

GCUGCUGAGACGGUUACCUTT against AL022818: the z-score is inactive: -0.864.

As for “GGUAAACCUGCCAAUUUUGTT against 9230106D23Rik”, the z-score was inactive: 0.573.

For the sequence GGUGAACGCAUCCGCUAGUTT against Fscn1, the z-score was inactive: -0.197.

With “GGUUUCCUGACAGAAAACCTT against 4930511H01Rik”, the z-score is inactive: 0.804.

As for CGCGUUCGGUUAUGUAAAUTT against Wnt1, the z-score was inactive: -0.72.

For the sequence GGAGAAAAUCCAUCUUGAATT against AU018778, the z-score is inactive: 0.214.

In the case of CCCAGGCCACUGAUCUAAGTT against Chrm5, the z-score is inactive: 1.01.

Regarding GGGUUUGGUCUCAUAUAAATT against Samd7, the z-score is inactive: 0.617.

GGAACUGGACAUCCAAACUTT against B3galt2: the z-score was inactive: 0.513.

Regarding GGCUUUCAGAAGUUUAUCATT against Gpr49, the z-score is inactive: -0.818.

As to CCUGCCAUAGUUAGUUUUUTT against AY238603, the z-score was inactive: 1.58.

For “CCAGGAUUGAUUUAGAAAATT against D730018G16”, the z-score is inactive: 0.172.

For the sequence CCACGAUUGCCAAACGUGATT against Dido1, the z-score is inactive: -0.194.

As to CCAUGAAUACCGAUGAGGATT against Kcnk9, the z-score was inactive: 0.536.

As for GAUUUUCCUGCUCACAAUGTT against Olfr1269, the z-score was inactive: 0.547.

GGUCAUCGGGUAAUUAAUCTT against Rad52: the z-score was inactive: 0.819.

In the case of CGCGCUGCUCAAAAACUAUTT against Gh, the z-score is inactive: 0.0846.

Regarding CGAAUUCAAAAAGCUAGAGTT against Gsto1, the z-score was inactive: -0.281.

Take GCUGUGAAGAAUCAGAUAGTT against Aatf: the z-score is inactive: -0.722.

UGGAUACUCUAUCUCAAGCTT against Serpinb9g: the z-score is inactive: -1.08.

Take GGUCACAUGGAGCUUUAUGTT against Il4ra: the z-score is inactive: 0.82.

For CCCACCUAGGUUCAUCCCATT against Fath, the z-score is active: 2.93.

Consider GGAAGACAUGGUUUUGAAGTT against V1rh1, for which the z-score is inactive: -0.8.

Take GGCAUCUAUACCAGUAAUATT against Mllt6: the z-score is inactive: 0.806.

On to GGAACUGGCAAGACAACCATT against Rfc2, for which the z-score is inactive: -3.

In the case of CCUGAAAGCUAAUAUGAAATT against Defb49, the z-score was inactive: 0.471.

For GCACUAGUUCUCAAUUUAATT against Antxr1, the z-score is inactive: 0.317.

“GGAUGUUCAACUAAAAGUATT against 1700034M03Rik”: the z-score was inactive: -0.865.

For the sequence CGCAUUCCGAUCUACGAGATT against Cart, the z-score is inactive: 0.219.

With GCUUGGACUGGCUGAAGAATT against Ndufa3, the z-score was inactive: -1.31.

On to GCUAUUGAAGUCUCUUCCGTT against Slc14a1, for which the z-score is inactive: 0.0516.

Regarding “GCUCCCUAACAGUUGUCUATT against 1110061O04Rik”, the z-score was inactive: 0.287.

In the case of “GGUGUCAACAUUGCAUACUTT against C430014D17Rik”, the z-score was inactive: 1.33.

With GGCUUGAGUACGAAUGGGATT against Gdd1, the z-score is inactive: 0.183.
